In PubChem BioAssay AID504444 (National Center for Advancing Translational Sciences (NCATS), 2011):
Out of some 360,000 compounds screened, about 7,500 (2.1%) were called active. The inconclusive results got no clear call from the source; some entries with a clear call stand among them for comparison. Calls follow the shape of the dose curve; as a rule, active = well fitted inhibition curve with a large enough effect; inconclusive = small, poorly fitted or top-dose-only effect, or effect the other way; inactive = flat fitted curve, though single readings scatter. Potencies beside an inconclusive call are fits to weak or partial responses and may not hold up.

Test: Nrf2 qHTS screen for inhibitors; also: nearly all actives have a fitted effect of over 60% in size
Details: A549 ARE-Fluc reporter, luciferase luminescence, 18-24 h; series mostly up to 46 µM
How it was run: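 Reporter: ARE-Fluc in A549. Exposure: 18-24 h, 37 °C, 5% CO2, 5% FBS OPTI-MEM. Readouts: fluorescent cytotoxicity (CellTiter-Fluor), then luminescent Nrf2 signal after BugLite.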
Potency is read from the fitted curve at half-maximal effect.

Row | SMILES | Potency
1 | CCC(C)Nc1nc2c(c(=O)[nH]c(=O)n2C)n1CCCc1ccccc1 (stereo not given) | inconclusive: 29.1 µM [falling, single point]
2 | CCOc1ccccc1-c1nnc2n1N=C(c1ccccc1OC)CS2 | inactive
3 | CCc1ccccc1NC(=O)CN1C(=O)c2ccccc2Sc2ncccc21 | inactive
4 | Cc1cc(C)cc(NC(=S)NCCc2c[nH]c3ccccc23)c1 | inconclusive: 9.2 µM [falling, partial curve]
5 | NC(=O)CN(C/C=C/c1ccccc1)C/C=C/c1ccccc1 | inactive
6 | Cc1cc(-c2nc(C)c(C(=O)NNS(=O)(=O)c3ccc(Cl)cc3Cl)s2)no1 | inactive
7 | Cc1ccc(S(=O)(=O)NNC(=O)CC#N)cc1 | inconclusive: 5.17 µM [falling, single point]
8 | CCCn1c(N)c(C(=O)CSc2nnc(-c3ccoc3C)n2C)c(=O)n(C)c1=O | inconclusive: 20.6 µM [falling, partial curve, poor fit]
9 | CC(C)=CCc1c(O)ccc2c1OC(c1ccc(O)c(O)c1)CC2=O (stereo not given) | inactive
10 | C=CCNc1nc(-c2cccc(OC)c2O)nc2ccccc12 | inconclusive: 23.1 µM [falling, single point]
11 | O=C(Cn1cnc2ccccc21)c1ccccc1 | inconclusive: 25.9 µM [activator, single point]
12 | C[C@@]12CCC=C[C@H]1[C@H](c1ccc(F)c(/C=C/c3ccccc3)c1)N(Cc1ccccc1)C2=O | inactive
13 | COc1ccc(CCNC(=S)N2CCN(S(=O)(=O)c3ccccc3)CC2)cc1 | inconclusive: 29.1 µM [falling, single point]
14 | O=C(C1CCCN(S(=O)(=O)c2cccc3nsnc23)C1)N1CC=C(c2ccccc2)CC1 (stereo not given) | inconclusive: 23.1 µM [falling, single point]
15 | CCSc1nnc(-c2ccccc2N)c(=O)[nH]1 | inconclusive: 7.31 µM [activator, partial curve, poor fit]
16 | COc1ccc(C(=O)OCC(=O)c2ccc(F)cc2)cc1OC | inconclusive: 8.2 µM [activator, partial curve]
17 | O=C(CN1CCN(Cc2ccccc2)CC1)N/N=C/C=C/c1ccccc1[N+](=O)[O-] | inactive
18 | Cc1ccc(NC(=O)CCCc2nnc3n(C)c(=O)c4sccc4n23)cc1F | inconclusive: 0.13 µM [falling, partial curve, poor fit]
19 | COc1cccc(C2c3c(ncn(-c4ccc5c(c4)OCO5)c3=N)Oc3ccc4ccccc4c32)c1 (stereo not given) | inactive
20 | CCOc1ccc(N2CC(c3nc4ccccc4n3Cc3ccccc3F)CC2=O)cc1 (stereo not given) | inconclusive: 16.4 µM [falling, single point]
21 | O=c1[nH]c(CN2CCN(CCO)CC2)nc2ccccc12 | inconclusive: 29.1 µM [activator, single point]
22 | Cc1ccc2oc(=O)c(/C=C(\O)c3ccccc3)nc2c1 | inactive
23 | O=C(NC(=S)Nc1nc2ccc(F)cc2s1)c1ccco1 | inconclusive: 18.4 µM [activator, partial curve]
24 | O=C(O)c1ccc2c(=O)n3c(nc2c1)/C(=C/c1ccc(F)cc1)CC3 | inconclusive: 25.9 µM [activator, partial curve]

Ordered by molecular weight (low to high): part of the list above
Row | SMILES | Potency
15 | CCSc1nnc(-c2ccccc2N)c(=O)[nH]1 | inconclusive: 7.31 µM [activator, partial curve, poor fit]
7 | Cc1ccc(S(=O)(=O)NNC(=O)CC#N)cc1 | inconclusive: 5.17 µM [falling, single point]
22 | Cc1ccc2oc(=O)c(/C=C(\O)c3ccccc3)nc2c1 | inactive
2 | CCOc1ccccc1-c1nnc2n1N=C(c1ccccc1OC)CS2 | inactive

The listing continues.

Row | SMILES | Potency
25 | CCCCOc1ccc(Br)cc1CSC(=N)N | inconclusive: 2.91 µM [falling, full curve]
26 | CC1CCCCN1C(=O)C1CCN(c2nc(-c3ccccc3)nc3c2CCC3)CC1 (stereo not given) | inconclusive: 9.2 µM [falling, partial curve, poor fit]
27 | O=C(Nc1ccc2c(c1)OCO2)c1noc2c1CCCC2 | inconclusive: 1.84 µM [activator, full curve]
28 | O=C(O)c1cccc(NC(=O)c2ccc3c(c2)C(=O)N(c2ccccc2)C3=O)c1 | inactive
29 | COCCOC(=O)C1=C(C)NC2=C(C(=O)CC(C)(C)C2)C1c1cccnc1 (stereo not given) | inactive
30 | CC(C)Cn1c(=O)c2ccccc2n2c(SCC(=O)N3c4ccccc4CC3C)nnc12 (stereo not given) | inactive
31 | Cc1cccc(N2CCN(C(=O)CCNS(=O)(=O)c3ccc4c(c3)CCC(=O)N4)CC2)c1C | active: 5.8 µM
32 | Fc1ccc(N2CCN(C3=Nc4cccc5cccc3c45)CC2)cc1 | inconclusive: 20.6 µM [activator, single point]
33 | CCSc1nnc(NC(=O)c2nn(C(C)C)c(=O)c3ccccc23)s1 | inconclusive: 20.6 µM [falling, partial curve, poor fit]
34 | Cc1cccc(NC(=O)c2ccc(CN3CCc4ccccc4C3)cc2)c1C | inconclusive: 18.4 µM [falling, single point]
35 | Cc1cccc(Nc2nc(N)nc(CSC(=S)N3CCOCC3)n2)c1 | inconclusive: 25.9 µM [activator, single point]
36 | Cc1cc(C)c2oc(C(=O)N3CCN(C)CC3)cc(=O)c2c1 | inconclusive: 25.9 µM [activator, single point]
37 | Cc1ccc(C)c(NC(=O)CCC(=O)N/N=C/c2ccc[nH]2)c1 | inconclusive: 16.4 µM [falling, partial curve]
38 | CC(OC(=O)c1ccc2ncsc2c1)C(=O)Nc1ncc(Cl)cc1Cl (stereo not given) | inconclusive: 25.9 µM [activator, single point]
39 | COc1cccc(NC(=O)CN(C)C(=O)C2CC3C=CC2C3)c1 (stereo not given) | inconclusive: 14.6 µM [falling, single point]
40 | COc1cc(/C=N\NC(=O)c2ccc(-c3ccccc3)cc2)ccc1OCC(N)=O | inconclusive: 8.2 µM [falling, partial curve]
41 | c1ccc(Nc2ncnc3sc4c(c23)CCC4)cc1 | inconclusive: 29.1 µM [falling, single point]
42 | O=C(CCCSc1ccccc1)Nc1nc(-c2ccco2)c(-c2ccco2)s1 | inactive
43 | Cc1cccc(N2C(=O)CC(Sc3ncn[nH]3)C2=O)c1 (stereo not given) | inconclusive: 29.1 µM [activator, single point]
44 | CCOc1ccc(OCC)c(NC(=O)c2ccc(-c3ccccc3)s2)c1 | inconclusive: 29.1 µM [activator, single point]
45 | COc1ccc(Cl)cc1C(=O)NNC(=S)NC(=O)c1cc(-c2ccccc2)nc2ccccc12 | inconclusive: 25.9 µM [falling, single point]
46 | CC(=O)C(Sc1nn(C)c(=S)s1)C(=O)Nc1ccccc1 (stereo not given) | inconclusive: 20.6 µM [activator, single point]
47 | O=c1oc(CCO)cc2ccc(C#Cc3ccsc3)cc12 | inactive
48 | CC1=NN(C(N)=S)C(=O)C1N=Nc1cccc(Cl)c1C (stereo not given) | inconclusive: 4.61 µM [activator, full curve]

Row | SMILES | Potency
49 | O=C(CCNC(=O)c1ccco1)Nc1nc(-c2ccccc2)cs1 | inconclusive: 6.51 µM [activator, full curve]
50 | COc1cc(CCC(=O)Nc2ccc(Br)c(C(F)(F)F)c2)cc(OC)c1OC | inconclusive: 18.4 µM [falling, single point]
51 | O=C(CSc1nnc(CCc2ccccc2)n1-c1ccc(Cl)cc1)c1ccccc1 | active: 23.1 µM
52 | COc1cc(SC)ccc1C(=O)Nc1ccccc1C#N | inconclusive: 5.17 µM [activator, partial curve]
53 | Cc1cccc(NC(=O)C(=O)NCC(c2cccnc2)N2CCc3ccccc3C2)c1C (stereo not given) | inactive
54 | O=C(Cn1ncc2c3ccccc3n(Cc3ccccc3)c2c1=O)N1CCN(c2ncccn2)CC1 | active: 16.4 µM
55 | CCOC(=O)c1scc(-c2ccc(C)cc2)c1S(=O)(=O)N1CCN(c2ccccc2F)CC1 | inactive
56 | COc1ccc2nccnc2c1[N+](=O)[O-] | inactive
57 | O=C(C1CCC1)N1CCc2cc(S(=O)(=O)N3CCN(c4ccccn4)CC3)ccc21 | inconclusive: 16.4 µM [falling, partial curve]
58 | CSc1nc2nc3c(cc2c(=O)n1-c1cccc(C)c1)COC(C)(C)C3 | inconclusive: 25.9 µM [falling, partial curve]
59 | COc1ccc(COC(=O)CCNC(=O)c2ccc(Cl)cc2)cc1 | inactive
60 | Cc1cccc(C)c1-c1ccc(CN2C(CC(C)C)C(=O)N(Cc3cn(CC4CCCCC4)nn3)CCS2(=O)=O)cc1 (stereo not given) | inconclusive: 11.6 µM [falling, partial curve]
61 | O=C(Nc1nnc(S(=O)(=O)Nc2ccccc2)s1)C1CCCCC1 | inconclusive: 20.6 µM [falling, partial curve, poor fit]
62 | O=C(N/C=C/c1ccco1)OCc1ccccc1 | inconclusive: 18.4 µM [activator, single point]
63 | COc1ccc(OC)c(CCNC(=O)CCC(=O)N2CCOc3ccc(C)cc32)c1 | inconclusive: 20.6 µM [falling, single point]
64 | Cc1ccc(Oc2ccc(C=O)cn2)cc1 | inconclusive: 16.4 µM [activator, single point]
65 | Cc1ccccc1N(C)S(=O)(=O)c1nnc(NC(=O)C(C)C)s1 | inconclusive: 18.4 µM [activator, single point]
66 | Cc1sccc1/C=N/NC(=O)c1ccco1 | inconclusive: 2.06 µM [activator, partial curve, poor fit]
67 | COc1ccc(Br)cc1-c1noc(-c2ccccc2)n1 | inconclusive: 0.0065 µM [activator, full curve, poor fit]
68 | Cc1cc(-n2c(C)cc(C(=O)CSc3ncnc4ccccc34)c2C)no1 | active: 4.61 µM
69 | COC(=O)CN(C)C(=O)c1ccc2nc(Cc3cccc(Cl)c3)oc2c1 | inconclusive: 2.31 µM [activator, full curve, poor fit]
70 | COc1cccc(NC(=O)c2oc3ccccc3c2NC(=O)C2CC2)c1 | inconclusive: 25.9 µM [falling, single point]
